pIC50: −log10 of the molar value. Some of these results come from one statement about several compounds together.
Tests used:
TGF-β receptors [1] = assay: Inhibition of specific binding of 125I-TGF-β1 to TGF-β receptors in mink lung epithelial cells; conditions: 0.1 nM 125I-TGF-β1, 2.5 hr at 0° C.; read-out: IC50 for inhibiting 125I-TGF-β1 binding to TGF-β receptors
Procedure: Specific binding of ^125I-labeled TGF-β1, TGF-β2, and TGF-β3 (^125I-TGF-β1, ^125I-TGF-β2, and ^125I-TGF-β3) to TGF-β receptors in mink lung epithelial cells. ^125I-TGF-β1, ^125I-TGF-β2, and ^125I-TGF-β3 were prepared by iodination of TGF-β1, TGF-β2, and TGF-β3 with Na^125I as described previously (Ref. 7). The specific radioactivities of ^125I-TGF-β1, ^125I-TGF-β2, and ^125I-TGF-β3 were 1-3×10^5 cpm/ng. Mink lung epithelial cells were grown on 24-well clustered dishes to near confluence in Dulbecco's modified Eagle medium (DMEM) containing 10% fetal calf serum. The epithelial cells were incubated with 0.1 nM ^125I-TGF-β1, ^125I-TGF-β2, or ^125I-TGF-β3 both with and without 100-fold excess of unlabeled TGF-β1, TGF-β2, or TGF-β3 in binding buffer (Ref. 7). After 2.5 hr at 0° C., the cells were washed two times with binding buffer, and the cell-associated radioactivity was determined. […] All experiments were carried out in triplicate cell cultures.

TGF-β receptors [2] = assay: Inhibition of specific binding of 125I-TGF-β2 to TGF-β receptors in mink lung epithelial cells; conditions: 0.1 nM 125I-TGF-β2, 2.5 hr at 0° C.; read-out: IC50 for inhibiting 125I-TGF-β2 binding to TGF-β receptors
Procedure: (§1) Specific binding of ^125I-labeled TGF-β1, TGF-β2, and TGF-β3 (^125I-TGF-β1, ^125I-TGF-β2, and ^125I-TGF-β3) to TGF-β receptors in mink lung epithelial cells. ^125I-TGF-β1, ^125I-TGF-β2, and ^125I-TGF-β3 were prepared by iodination of TGF-β1, TGF-β2, and TGF-β3 with Na^125I as described previously (Ref. 7). The specific radioactivities of ^125I-TGF-β1, ^125I-TGF-β2, and ^125I-TGF-β3 were 1-3×10^5 cpm/ng. Mink lung epithelial cells were grown on 24-well clustered dishes to near confluence in Dulbecco's modified Eagle medium (DMEM) containing 10% fetal calf serum. The epithelial cells were incubated with 0.1 nM ^125I-TGF-β1, ^125I-TGF-β2, or ^125I-TGF-β3 both with and without 100-fold excess of unlabeled TGF-β1, TGF-β2, or TGF-β3 in binding buffer (Ref. 7). After 2.5 hr at 0° C., the cells were washed two times with binding buffer, and the cell-associated radioactivity was determined. The specific binding of ^125I-labeled TGF-β isoforms to TGF-β receptors in the cells was calculated by subtracting non-specific binding (in the presence of 100-fold excess of the unlabeled TGF-β isoforms) from total binding. All experiments were carried out in triplicate cell cultures.

TGF-β receptors [3] = assay: Inhibition of specific binding of 125I-TGF-β3 to TGF-β receptors in mink lung epithelial cells; conditions: 0.1 nM 125I-TGF-β3, 2.5 hr at 0° C.; read-out: IC50 for inhibiting 125I-TGF-β3 binding to TGF-β receptors
Procedure: as §1

Row | Sequence | pIC50 (TGF-β receptors [1]) | pIC50 (TGF-β receptors [2]) | pIC50 (TGF-β receptors [3])
1 | ANFCLGPCPYIWSLDTQYSKVLALY [peptide β1^25 (41-65)] | 5.70 to 6.00 | 5.70 to 6.00 | 7.10 to 7.22
2 | PYLWSSDTQH [peptide β2^10 (49-58)] | 4.15 to 4.40 | – | –
3 | ANFCAGACPYLWSSDTQHSRVLSLY [peptide β2^25 (41-65)] | 5.70 to 6.00 | 5.70 to 6.00 | –
4 | ANFCSGPCPYLRSADTTHSTVLGLY [peptide β3^25 (41-65)] | – | – | 7.10 to 7.22
5 | PYIWSLDTQY [peptide β1^10 (49-58)] | 4.15 to 4.40 | – | –

Reference: patent US7723473B2, “Peptide antagonists of TGF-beta family members and therapeutic uses thereof” (St. Louis University, priority 1997, dated 2010)
